From PubChem BioAssay AID1487 (National Center for Advancing Translational Sciences (NCATS), 2009)
The other results are listed elsewhere or left out. The main result of the screen is listed elsewhere. These columns were measured beside it and carry no call. The list favours compounds with an active or inconclusive main result. Words in brackets tell the shape of the fitted curve; partial curves, single points and poor fits give uncertain potencies.

Assay: qHTS Assay for Modulators of Lamin A Splicing
Settings: HeLa LMNA splicing GFP/RFP minigene ratio, 48 h
In short: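 Read-out is the ratio of GFP to DsRed2 object intensity, acquired by 488 nm laser-scanning cytometry on HeLa lamin A-EGFP minigene reporter cells. Compound incubation 48 hrs at 37 °C in Opti-MEM with 2% FBS; DMSO 0.5% final.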

[1] = measured here: RFP viability control channel
[2] = measured here: GFP splicing reporter channel

| SMILES | AC50 [1] | AC50 [2] |
| --- | --- | --- |
| CC(=O)N(Cc1cc2ccc(C)c(C)c2n2nnnc12)C1CCCC1 | 22.4 µM [rising, single point] | – |
| CN(Cc1ccccc1)S(=O)(=O)c1ccc(F)c(C(=O)Nc2cccc(Cl)c2Cl)c1 | 17.8 µM [rising, single point] | – |
| C=CCN=C1CCCc2c1[nH]c1ccc(C)cc21 | 0.891 µM [rising, single point] | – |
| O=C(NCc1cccs1)c1nc2c(nnn2Cc2ccccc2Cl)c(=O)[nH]1 | 28.2 µM [falling, single point] | 11.2 µM [falling, partial curve] |
| CCOc1ccc(S(=O)(=O)Nc2cccc(OC)c2)cc1 | 31.6 µM [rising, single point] | – |
| COc1ccc(O)c(/C=N/NC(=O)c2c(C)nnn2-c2nonc2N)c1 | – | 35.5 µM [falling, partial curve] |
| Cc1cc(OC(=O)c2ccco2)c(Sc2ccccc2[N+](=O)[O-])c(=O)o1 | 0.01 µM [falling, full curve, poor fit] | 0.0141 µM [falling, full curve, poor fit] |
| CCOC(=O)c1c(NC(=O)c2ccc(S(=O)(=O)N(CCOC)CCOC)cc2)sc2c1CC(C)(C)NC2(C)C | – | 7.08 µM [falling, partial curve] |
| Cn1c(N2CCCC2)nc2c1c(=O)n(Cc1ccc(Cl)cc1)c(=O)n2C | 14.1 µM [rising, single point] | 10 µM [rising, partial curve] |
| CCOc1ccc(C2Sc3ccccc3NC3=C2C(=O)OC3)cc1 (centres undefined) | 31.6 µM [rising, single point] | – |
| On1c(-c2ccc(Cl)cc2)nc2ccccc21 | 14.1 µM [falling, single point] | 28.2 µM [falling, single point] |
| O=C(CCSc1nc(-c2ccco2)cc(C(F)(F)F)n1)N1CCN(c2ccccc2)CC1 | 8.91 µM [rising, partial curve] | – |
| O=C(CSc1ncnc2c1cnn2-c1ccccc1)Nc1ccccc1 | 14.1 µM [rising, partial curve] | 15.8 µM [rising, single point] |
| CCn1cc(C(=O)NCc2ccccc2)c(=O)c2cc(F)c(N3CCN(C(=O)c4ccco4)CC3)cc21 | 31.6 µM [rising, single point] | 35.5 µM [rising, single point] |
| Cc1nnc2c(NC(C)C)nc3ccccc3n12 | 14.1 µM [rising, partial curve] | 10 µM [rising, partial curve, poor fit] |
| CC(=O)c1c(N2CCOCC2)[nH]c(-c2ccccc2)nc1=S | – | 15.8 µM [rising, single point] |
| N#Cc1ccc(NC(=O)Nc2cccc(C#N)c2)cc1 | – | 35.5 µM [rising, single point] |
| O=C(COC(=O)C1CC1)Nc1ccc2[nH]c(=O)[nH]c2c1 | 4.47 µM [rising, full curve, poor fit] | 0.316 µM [rising, full curve, poor fit] |
| Nc1cc(-c2ccccc2)nn1Cc1ccc(Cl)cc1 | 17.8 µM [rising, partial curve, poor fit] | 1 µM [rising, full curve, poor fit] |
| CCOC(=O)c1c(C)[nH]c(C)c1C(=O)CSc1nc2ccccc2c(=O)n1-c1ccc(C)cc1 | 25.1 µM [rising, partial curve] | 17.8 µM [rising, single point] |
| N#CC1=CN(Cc2ccccc2)C=C(/C=N/Nc2ccccc2)C1 | 31.6 µM [rising, single point] | 35.5 µM [rising, partial curve, poor fit] |
| CCOC(=O)c1c(NC(=O)CSc2nnc(-c3cccnc3)n2Cc2ccco2)sc(C)c1C | 12.6 µM [rising, single point] | – |
| CCCc1c(OCCCCc2nn[nH]n2)ccc(C(C)=O)c1O | 11.2 µM [rising, partial curve] | 12.6 µM [rising, partial curve, poor fit] |
| Cc1occc1C(=O)Nc1sc2c(c1C(N)=O)CCCCC2 | 14.1 µM [rising, partial curve, poor fit] | – |
| Cn1c(Cl)cnc1C1CC(=O)c2cc(Cl)ccc2O1 (centres undefined) | – | 35.5 µM [falling, single point] |
| O=C1CC(N2CCN(c3ccc(F)cc3)CC2)C(=O)N1c1ccccc1 (centres undefined) | 3.55 µM [falling, partial curve, poor fit] | – |
| COc1cc(/C=N/NC(=O)c2ccc3ccccc3c2)ccc1Oc1ccc([N+](=O)[O-])cn1 | 22.4 µM [rising, single point] | – |

As a short view, part of the list above:

| SMILES | AC50 [1] | AC50 [2] |
| --- | --- | --- |
| Cn1c(N2CCCC2)nc2c1c(=O)n(Cc1ccc(Cl)cc1)c(=O)n2C | 14.1 µM [rising, single point] | 10 µM [rising, partial curve] |
| CCOc1ccc(C2Sc3ccccc3NC3=C2C(=O)OC3)cc1 (centres undefined) | 31.6 µM [rising, single point] | – |
